Measurements reported in publication PMC4732300.
No constants are given. Whether binding was seen depends on the method and setting. Binding seen in cells or lysates may run through a third protein. Binding can be weak; no strength is given. Tags and fused reporters may be left off the sequences shown.

By UniProt entry, the sequences of proteins in these tests, tags left out. Where a name states a change or a piece, a line headed by the entry shows the natural chain unless it says otherwise.
UniProt Q7KUD2: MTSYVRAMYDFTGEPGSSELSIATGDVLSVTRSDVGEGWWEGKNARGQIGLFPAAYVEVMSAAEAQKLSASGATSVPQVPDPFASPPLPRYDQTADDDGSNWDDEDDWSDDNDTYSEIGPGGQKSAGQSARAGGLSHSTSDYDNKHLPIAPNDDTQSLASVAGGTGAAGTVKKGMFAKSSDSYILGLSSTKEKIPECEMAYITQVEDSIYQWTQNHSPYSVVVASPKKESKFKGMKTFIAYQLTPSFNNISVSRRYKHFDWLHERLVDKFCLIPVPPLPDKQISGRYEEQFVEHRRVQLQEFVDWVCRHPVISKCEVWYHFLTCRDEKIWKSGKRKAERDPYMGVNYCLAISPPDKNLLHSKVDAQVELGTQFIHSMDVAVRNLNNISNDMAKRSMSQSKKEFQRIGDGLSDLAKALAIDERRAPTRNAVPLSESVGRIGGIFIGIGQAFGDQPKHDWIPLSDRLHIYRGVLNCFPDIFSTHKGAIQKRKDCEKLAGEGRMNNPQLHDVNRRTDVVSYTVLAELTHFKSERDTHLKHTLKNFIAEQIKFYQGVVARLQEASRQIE

T1: FLAG–Nwk (full-length Drosophila Nervous wreck) (Drosophila) (UniProt X2JAU8)
T1 sequence: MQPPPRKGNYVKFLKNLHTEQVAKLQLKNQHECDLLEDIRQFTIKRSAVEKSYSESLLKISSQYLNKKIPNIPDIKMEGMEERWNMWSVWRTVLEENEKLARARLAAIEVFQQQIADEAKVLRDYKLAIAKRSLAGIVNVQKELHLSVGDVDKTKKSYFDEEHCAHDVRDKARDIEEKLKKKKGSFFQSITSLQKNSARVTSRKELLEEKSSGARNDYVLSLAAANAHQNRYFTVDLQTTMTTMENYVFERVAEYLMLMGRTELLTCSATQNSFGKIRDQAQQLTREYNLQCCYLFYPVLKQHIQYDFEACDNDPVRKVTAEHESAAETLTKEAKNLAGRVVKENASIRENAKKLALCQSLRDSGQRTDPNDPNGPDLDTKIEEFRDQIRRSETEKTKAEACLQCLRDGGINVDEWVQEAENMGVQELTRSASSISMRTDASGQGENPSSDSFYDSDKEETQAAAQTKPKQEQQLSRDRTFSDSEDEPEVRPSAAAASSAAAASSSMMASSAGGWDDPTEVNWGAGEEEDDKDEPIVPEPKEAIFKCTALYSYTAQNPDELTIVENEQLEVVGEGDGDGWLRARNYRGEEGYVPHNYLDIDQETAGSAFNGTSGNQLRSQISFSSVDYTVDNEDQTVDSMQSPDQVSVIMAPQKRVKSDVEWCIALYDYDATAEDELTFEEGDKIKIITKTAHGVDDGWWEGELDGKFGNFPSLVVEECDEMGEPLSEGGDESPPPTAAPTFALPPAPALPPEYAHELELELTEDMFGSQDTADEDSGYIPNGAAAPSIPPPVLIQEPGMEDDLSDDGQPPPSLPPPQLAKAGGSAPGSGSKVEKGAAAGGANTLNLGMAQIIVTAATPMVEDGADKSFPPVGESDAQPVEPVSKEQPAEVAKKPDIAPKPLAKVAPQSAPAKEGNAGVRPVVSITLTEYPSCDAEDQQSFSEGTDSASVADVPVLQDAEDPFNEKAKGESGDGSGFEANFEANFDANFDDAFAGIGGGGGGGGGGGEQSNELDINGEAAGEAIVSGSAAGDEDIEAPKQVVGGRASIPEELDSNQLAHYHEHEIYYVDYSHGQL

T2: FLAG–Nwk-F-BAR (amino acid residues 1–290) (Drosophila) (UniProt X2JAU8)
T2 sequence: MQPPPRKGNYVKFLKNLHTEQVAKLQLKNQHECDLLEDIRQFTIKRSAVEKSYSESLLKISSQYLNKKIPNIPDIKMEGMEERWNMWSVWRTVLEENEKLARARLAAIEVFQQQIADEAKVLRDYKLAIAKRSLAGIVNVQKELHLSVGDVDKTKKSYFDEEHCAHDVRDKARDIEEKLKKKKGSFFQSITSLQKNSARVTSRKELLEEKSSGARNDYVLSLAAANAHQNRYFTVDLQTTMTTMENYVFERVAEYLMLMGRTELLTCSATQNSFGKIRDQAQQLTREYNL


What was measured:
Assay in all cases: co-IP; Drosophila S2 cells co-transfected; lysis in 50 mM Tris-HCl pH 7.4, 150 mM NaCl, 1 mM EDTA, 1% Triton X-100; IP with anti-FLAG and, reciprocally, anti-HA, overnight at 4°C, Protein A/G agarose; western blot
[1] = molecular target: T1, FLAG–Nwk (full-length Drosophila Nervous wreck) (Drosophila)
[2] = molecular target: T2, FLAG–Nwk-F-BAR (amino acid residues 1–290) (Drosophila)
HA–SH3PX1 (Drosophila) = HA–SH3PX1 (Drosophila) (UniProt Q7KUD2)

Row | Molecule | binding [1] | binding [2] | binding (HA–SH3PX1 (Drosophila))
1 | HA–SH3PX1 (from UniProt Q7KUD2) | binds | binds | 
2 | FLAG–Nwk (full-length Drosophila Nervous wreck) (protein, UniProt X2JAU8 1-1075) MQPPPRKGNYVKFLKNLHTEQVAKLQLKNQHECDLLEDIRQFTIKRSAVEKSYSESLLKISSQYLNKKIPNIPDIKMEGMEERWNMWSVWRTVLEENEKLARARLAAIEVFQQQIADEAKVLRDYKLAIAKRSLAGIVNVQKELHLSVGDVDKTKKSYFDEEHCAHDVRDKARDIEEKLKKKKGSFFQSITSLQKNSARVTSRKELLEEKSSGARNDYVLSLAAANAHQNRYFTVDLQTTMTTMENYVFERVAEYLMLMGRTELLTCSATQNSFGKIRDQAQQLTREYNLQCCYLFYPVLKQHIQYDFEACDNDPVRKVTAEHESAAETLTKEAKNLAGRVVKENASIRENAKKLALCQSLRDSGQRTDPNDPNGPDLDTKIEEFRDQIRRSETEKTKAEACLQCLRDGGINVDEWVQEAENMGVQELTRSASSISMRTDASGQGENPSSDSFYDSDKEETQAAAQTKPKQEQQLSRDRTFSDSEDEPEVRPSAAAASSAAAASSSMMASSAGGWDDPTEVNWGAGEEEDDKDEPIVPEPKEAIFKCTALYSYTAQNPDELTIVENEQLEVVGEGDGDGWLRARNYRGEEGYVPHNYLDIDQETAGSAFNGTSGNQLRSQISFSSVDYTVDNEDQTVDSMQSPDQVSVIMAPQKRVKSDVEWCIALYDYDATAEDELTFEEGDKIKIITKTAHGVDDGWWEGELDGKFGNFPSLVVEECDEMGEPLSEGGDESPPPTAAPTFALPPAPALPPEYAHELELELTEDMFGSQDTADEDSGYIPNGAAAPSIPPPVLIQEPGMEDDLSDDGQPPPSLPPPQLAKAGGSAPGSGSKVEKGAAAGGANTLNLGMAQIIVTAATPMVEDGADKSFPPVGESDAQPVEPVSKEQPAEVAKKPDIAPKPLAKVAPQSAPAKEGNAGVRPVVSITLTEYPSCDAEDQQSFSEGTDSASVADVPVLQDAEDPFNEKAKGESGDGSGFEANFEANFDANFDDAFAGIGGGGGGGGGGGEQSNELDINGEAAGEAIVSGSAAGDEDIEAPKQVVGGRASIPEELDSNQLAHYHEHEIYYVDYSHGQL |  |  | binds
3 | FLAG–Nwk-F-BAR (amino acid residues 1–290) (domain or fragment, UniProt X2JAU8 1-290) MQPPPRKGNYVKFLKNLHTEQVAKLQLKNQHECDLLEDIRQFTIKRSAVEKSYSESLLKISSQYLNKKIPNIPDIKMEGMEERWNMWSVWRTVLEENEKLARARLAAIEVFQQQIADEAKVLRDYKLAIAKRSLAGIVNVQKELHLSVGDVDKTKKSYFDEEHCAHDVRDKARDIEEKLKKKKGSFFQSITSLQKNSARVTSRKELLEEKSSGARNDYVLSLAAANAHQNRYFTVDLQTTMTTMENYVFERVAEYLMLMGRTELLTCSATQNSFGKIRDQAQQLTREYNL |  |  | binds
